Test results taken from PubChem BioAssay AID540256 (National Center for Advancing Translational Sciences (NCATS), 2011).
Among all 300,000 compounds or so, about 3,700 (1.2%) were called active. Inconclusive means that the source gave no clear call. Such entries were picked first, then a sample of the others. Calls follow the shape of the full dose curve; tested in HEK293 cells. Potencies of inconclusive entries are doubtful fits and often do not repeat.
% is scaled to controls: 0 for no effect and ±100 for the full control effect; potency is read from the fitted curve at half-maximal effect.

Experiment: qHTS for Inhibitors of binding or entry into cells for Lassa Virus; also: nearly all actives have a fitted effect of over 50% in size
Details: Lassa virus pseudotype entry inhibition, cell reporter; activity change, negative = inhibition: at 37.9 µM (top of the series) unless noted
In the case of `c1ccc(OCc2nnc(-c3ccccc3)o2)cc1`, the “activity change, negative = inhibition” value is reported as inactive: 10.5%.
With `O=S(=O)(NCCc1csc(-c2cccc(F)c2)n1)c1cc(F)ccc1F` the “activity change, negative = inhibition” value was inactive: -2.8% [at 46.1 µM].
In the case of `S=c1[nH]c(-c2ccccc2)cn1/N=C/c1ccncc1`, the Potency is reported as inconclusive: 35.5 µM [activator, single point].
For `O=C(N/N=C/c1cc([N+](=O)[O-])ccc1O)c1ccc2c(c1)OCCO2`, the Potency was inconclusive: 5.01 µM [inhibitor, partial curve, poor fit].
For `COC(=O)C1=CN(c2ccc(F)cc2)C=C(C(=O)OC)C1c1cccc(Br)c1`, the Potency was inconclusive: 1 µM [inhibitor, full curve, poor fit].
With `CN1CC(C(=O)c2cccs2)C(c2ccc(Cl)cc2)C1` (centres undefined) the Potency was inconclusive: 35.5 µM [inhibitor, partial curve, poor fit].
With `COc1ccc(Cl)cc1NC(=O)Cn1c(=O)n(-c2ccc(C)cc2)c(=O)c2ccc(C(=O)NCc3ccccc3Cl)cc21` the Potency was inconclusive: 6.31 µM [inhibitor, single point].
With `O=C(CC1C(=O)NCCN1Cc1ccc(F)cc1Cl)NC1CCCCCCC1` (centres undefined) the “activity change, negative = inhibition” value was inactive: 3.04%.
In the case of `COc1ccc(C(=O)Nc2cccc(OC)c2)cc1`, the Potency is reported as inconclusive: 20.6 µM [inhibitor, single point].
In the case of `Cc1ccc(CNCC(O)c2ccccc2)s1` (centres undefined), the “activity change, negative = inhibition” value is reported as inactive: 17.8% [at 46.1 µM].
With `COC(=O)c1c(NC(C)=O)sc(C(=O)Nc2ccccc2C)c1C` the “activity change, negative = inhibition” value was inactive: 21.7%.
In the case of `O=C(COc1ccc2ccccc2c1)Nc1ccc(Br)cc1C(=O)O`, the Potency is reported as inconclusive: 35.5 µM [inhibitor, single point].
In the case of `O=C(Cc1ccc(NC(=O)N2CCCCc3ccccc32)cc1)NCc1cccc(Br)c1`, the “activity change, negative = inhibition” value is reported as inactive: -16.4% [at 46.1 µM].
In the case of `CC(=O)c1cccc(NC(=O)c2sc3nc4n(c(=O)c3c2C)CCCCC4)c1`, the Potency is reported as inconclusive: 11.2 µM [inhibitor, partial curve].
With `Cc1cccc(COCC(Cc2ccccc2)N2CCN(C(=O)c3cccc(Cl)c3)CCC2=O)c1` (centres undefined) the Potency was active: 5.17 µM.
With `Cn1c(C(=O)N2CCCC(C(=O)O)C2)cc2sccc21` (centres undefined) the “activity change, negative = inhibition” value was inactive: 11.5%.
With `CCOc1cc(/C=N\NC(=O)c2ccc(NC(=O)CC)cc2)ccc1OC(=O)c1ccccc1` the Potency was active: 23.1 µM.
In the case of `Cc1ccc(S(=O)(=O)NCC(=O)N(CC(=O)NCC2CCCO2)Cc2ccccc2Cl)cc1` (centres undefined), the Potency is reported as inconclusive: 3.55 µM [inhibitor, single point].
In the case of `CCOC(=O)c1ccc(Nc2c(-c3ccc(OC)cc3)nc3nc[nH]n23)cc1`, the Potency is reported as inconclusive: 35.5 µM [inhibitor, single point].
In the case of `CCOc1ccc(CCNC(=O)C2Cc3ccccc3N2C(=O)CC)cc1` (centres undefined), the “activity change, negative = inhibition” value is reported as inactive: 7.11% [at 46.1 µM].
With `CCN(c1cccc(C)c1)S(=O)(=O)c1ccc2c(c1)N(C(C)=O)CCS2` the Potency was inconclusive: 17.8 µM [inhibitor, single point].
For `CCOc1ccc(S(=O)(=O)Nc2ccc3c(c2)CCCN3C(=O)c2cccs2)cc1`, the Potency was inconclusive: 14.1 µM [inhibitor, single point].
For `COc1ccc(CNC(=O)CC(C)CC2=NS(=O)(=O)c3ccccc3N2)cc1` (centres undefined), the “activity change, negative = inhibition” value was inactive: 25.3% [at 46.1 µM].
In the case of `Cc1ccc(S(=O)(=O)c2nc(-c3cccs3)oc2SCc2ccc(F)cc2)cc1`, the Potency is reported as inconclusive: 3.16 µM [inhibitor, single point].
For `CC(C)c1ccccc1NC(=O)C(Cc1c[nH]c2ccccc12)NC(=O)OC(C)(C)C` (centres undefined), the Potency was inconclusive: 7.08 µM [inhibitor, full curve, poor fit].
With `Cc1c(CN(C)C)c2c(n1C)C(=O)c1ccc(Br)cc1-2` the Potency was inconclusive: 29.1 µM [inhibitor, single point].
In the case of `CCc1ccc(/C=N/NC(=O)c2cc(C)on2)s1`, the Potency is reported as inconclusive: 1.26 µM [inhibitor, single point].
With `C/C(=N\NC(=O)c1nn(C)c(C)c1Br)c1cccc(NC(=O)c2ccoc2C)c1` the “activity change, negative = inhibition” value was inactive: 11.3%.
In the case of `Nc1nc(Nc2ccccc2)sc1C(=O)c1ccccc1`, the Potency is reported as inconclusive: 7.94 µM [inhibitor, partial curve, poor fit].
In the case of `C=C(C)Cn1c(SCC(=O)c2ccc(Br)cc2)nc2sc3c(c2c1=O)CCCC3`, the “activity change, negative = inhibition” value is reported as inactive: 15.9% [at 46.1 µM].
In the case of `c1ccc(CN2CCC(Nc3nc(-c4cccs4)nc4ccccc34)CC2)cc1`, the Potency is reported as inconclusive: 29.1 µM [inhibitor, single point].
With `CC1=C(C#N)C(NC(=O)c2ccccc2)(C(F)(F)F)C(=O)N1` (centres undefined) the Potency was inconclusive: 5.62 µM [activator, single point].
In the case of `CC(C)(C)NC(=O)NC(=O)CN1CCN(c2ncc(C(F)(F)F)cc2Cl)CC1`, the Potency is reported as inconclusive: 25.1 µM [inhibitor, single point].
With `COC(=O)Cc1[nH]n(-c2nc3ccccc3s2)c(=O)c1C(C)=Nc1ccc(C)cc1` the Potency was inconclusive: 3.16 µM [inhibitor, partial curve, poor fit].
For `CN1CCN(Cc2cn[nH]c2-c2ccc(F)cc2F)[C@@H](c2ccccc2)C1`, the Potency was inconclusive: 35.5 µM [inhibitor, partial curve, poor fit].
With `Cc1ccc(NC(=O)C(OC(=O)c2ccc(C=O)cc2)c2ccccc2)cc1Cl` (centres undefined) the Potency was inconclusive: 35.5 µM [inhibitor, partial curve, poor fit].
With `CCCCn1c(SCc2ccccc2C)nc2ccsc2c1=O` the “activity change, negative = inhibition” value was inactive: -11.6% [at 46.1 µM].
With `COc1ccc(CNC(=O)C(=O)NCC(c2ccco2)S(=O)(=O)c2cccs2)cc1` (centres undefined) the “activity change, negative = inhibition” value was inactive: 1.19% [at 46.1 µM].
In the case of `COc1ccc(-n2c3c(cc(C(=O)NNc4ccccc4)c2=O)C(=O)CC(C)(C)C3)cc1`, the Potency is reported as inconclusive: 12.6 µM [inhibitor, single point].
For `Cc1ccccc1Oc1nc2c(C)cccn2c(=O)c1/C=C(\C#N)C(=O)Nc1c(C)n(C)n(-c2ccccc2)c1=O`, the Potency was inconclusive: 12.6 µM [inhibitor, single point].
With `Cn1nnnc1SC1CC(=O)N(c2ccccc2)C1=O` (centres undefined) the “activity change, negative = inhibition” value was inactive: -16.6%.
In the case of `C=CCOc1ccc(C=CC(=O)c2c(O)c(OC)c(OC)c(OC)c2OC)cc1`, the Potency is reported as inconclusive: 7.94 µM [inhibitor, partial curve, poor fit].
In the case of `Clc1ccccc1N=Nc1ccccn1`, the Potency is reported as inconclusive: 2.82 µM [activator, single point].
With `COc1ccc2c(c1)[C@@]1(OCCC=C[C@@H]1C)C(=O)N2Cc1ccc(F)cc1` the Potency was inconclusive: 0.0119 µM [activator, full curve, poor fit].
For `Cc1cccc(N2CCN(C(=O)Cn3c(C)c4cnn(-c5ccccc5)c(=O)c4c3C)CC2)c1C`, the Potency was inconclusive: 11.2 µM [inhibitor, single point].
With `CC1Cc2cc(/C=C3/SC(N4CCC(C(N)=O)CC4)=NC3=O)ccc2O1` (centres undefined) the Potency was inconclusive: 0.891 µM [inhibitor, partial curve, poor fit].
With `CCCCCn1c(CCC(=O)Oc2ccccc2OC)nc2c1c(=O)[nH]c(=O)n2CCCC` the “activity change, negative = inhibition” value was inactive: -28.1%.
In the case of `CCc1ccc(S(=O)(=O)Nc2cc3c(cc2C)n(C)c(=O)c(=O)n3C)cc1`, the “activity change, negative = inhibition” value is reported as inactive: -9.09% [at 46.1 µM].
In the case of `COc1ccc(/C(C)=N/NC(=S)NCc2ccco2)cc1`, the Potency is reported as active: 2.06 µM.
For `CC(SC(C)C(=O)NN=Cc1c[nH]c2ccccc12)C(=O)NN=Cc1c[nH]c2ccccc12` (centres undefined), the “activity change, negative = inhibition” value was inactive: -14.8% [at 46.1 µM].
For `Cc1ccc(NC(=O)c2cnccn2)cc1S(=O)(=O)N1CCCCCC1`, the Potency was inconclusive: 7.08 µM [inhibitor, partial curve, poor fit].
In the case of `CN(C)c1ccc(P(=O)(COc2ccc([N+](=O)[O-])cc2)c2ccc(N(C)C)cc2)cc1`, the Potency is reported as inconclusive: 8.91 µM [inhibitor, partial curve].
For `NC(=O)c1ccc(NCC2CCCO2)c([N+](=O)[O-])c1` (centres undefined), the “activity change, negative = inhibition” value was inactive: 13.9%.
With `CN(C)c1ccnc(Oc2ccc(Cl)cc2)c1C#N` the Potency was inconclusive: 2.59 µM [activator, full curve, poor fit].
In the case of `Cc1cc(N2CCN(C/C=C/c3ccccc3)CC2)n2ncnc2n1`, the Potency is reported as inconclusive: 29.1 µM [inhibitor, single point].
For `Cc1cc(C(=O)N/N=C/c2c[nH]c3ccccc23)cs1`, the Potency was inconclusive: 3.66 µM [activator, full curve, poor fit].
In the case of `COc1ccccc1C/C(N)=N/OC(=O)/C=C/c1ccccc1`, the “activity change, negative = inhibition” value is reported as inactive: -22.5%.
In the case of `Cc1cc(C)cc(NC(=S)N2CC(C)OC(C)C2)c1` (centres undefined), the “activity change, negative = inhibition” value is reported as inactive: 10.4% [at 46.1 µM].
For `Cc1ccc(OC(=O)c2c(C)nn(-c3ccccc3)c2C)cc1`, the Potency was inconclusive: 5.62 µM [activator, single point].
In the case of `O=C(C1=C(c2ccccc2)C(=O)c2ccccc2C1=O)c1ccccc1`, the Potency is reported as active: 2.59 µM.
For `CCCC(=O)N1c2ccccc2-c2nnc(SC)nc2OC1c1sccc1C` (centres undefined), the “activity change, negative = inhibition” value was inactive: -0.208% [at 46.1 µM].
With `Cc1c(C(=O)C(=O)N2CC=C(c3ccccc3)CC2)c2ccccc2n1C` the Potency was inconclusive: 2.51 µM [inhibitor, full curve].
For `O=C(CN1CCN(c2ccccc2)CC1)Nc1ccc2c(c1)OCCO2`, the Potency was inconclusive: 22.4 µM [inhibitor, single point].
In the case of `CCN(CC(=O)NCc1cccs1)C(=O)c1cc(S(=O)(=O)NCc2ccccc2)ccc1C`, the Potency is reported as inconclusive: 35.5 µM [inhibitor, single point].
For `Cc1ccc(-c2nnc(SCC(=O)NCc3ccccc3)o2)cc1`, the “activity change, negative = inhibition” value was inactive: -0.382% [at 46.1 µM].
With `Cc1noc(N)c1C(=O)Nc1ccc(F)cc1` the Potency was inconclusive: 1.26 µM [inhibitor, single point].
With `CCOc1cc2nc(-c3ccc(OC)c(OC)c3)nc(NCCCN3CCOCC3)c2cc1OC` the Potency was inconclusive: 12.6 µM [inhibitor, partial curve, poor fit].
For `NC(=O)c1c(NC(NC(=O)c2ccco2)(C(F)(F)F)C(F)(F)F)sc2c1CCCC2`, the Potency was inconclusive: 3.98 µM [activator, single point].
With `CCN(CC(=O)NCc1cccs1)S(=O)(=O)c1ccc(F)c(F)c1F` the “activity change, negative = inhibition” value was inactive: 0.711%.
